This assay has as its target Sirtuin 5 (SIRT5) (rat (endogenous in rat NP cells)) (UniProt Q68FX9). The assay is described as follows: affinity purification with mass spectrometry; co-immunoprecipitation products of endogenous SIRT5 from rat NP cells, separated by HPLC, mass spectra searched with MaxQuant.

Protein sequences, listed by entry. Tags and fused reporters are not part of them. Residues count along the entry.
UniProt Q68FX9, residues 37-310: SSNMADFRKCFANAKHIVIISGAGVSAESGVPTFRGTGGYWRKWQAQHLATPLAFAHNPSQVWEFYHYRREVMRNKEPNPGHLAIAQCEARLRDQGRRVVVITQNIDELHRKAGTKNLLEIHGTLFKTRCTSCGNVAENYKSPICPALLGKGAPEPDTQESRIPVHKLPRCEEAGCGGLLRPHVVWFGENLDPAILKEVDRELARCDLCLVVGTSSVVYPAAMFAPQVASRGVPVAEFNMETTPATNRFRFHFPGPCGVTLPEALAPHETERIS
UniProt Q9JM53, residues 102-612: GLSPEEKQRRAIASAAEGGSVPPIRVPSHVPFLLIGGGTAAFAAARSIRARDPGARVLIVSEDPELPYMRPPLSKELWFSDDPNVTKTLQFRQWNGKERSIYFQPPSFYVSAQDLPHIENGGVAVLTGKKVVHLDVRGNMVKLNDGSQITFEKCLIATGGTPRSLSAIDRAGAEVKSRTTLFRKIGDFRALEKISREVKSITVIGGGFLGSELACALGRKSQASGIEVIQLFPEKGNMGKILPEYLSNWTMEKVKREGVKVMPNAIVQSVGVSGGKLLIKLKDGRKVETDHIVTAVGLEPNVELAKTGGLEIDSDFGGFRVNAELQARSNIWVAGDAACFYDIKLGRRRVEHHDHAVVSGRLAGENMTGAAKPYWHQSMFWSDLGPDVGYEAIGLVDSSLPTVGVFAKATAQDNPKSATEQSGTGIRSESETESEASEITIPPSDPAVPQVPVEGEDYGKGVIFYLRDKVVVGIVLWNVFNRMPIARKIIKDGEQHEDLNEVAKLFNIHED

The results in this text go back to article PMC9898264.

These are yes or no findings as the source states them, for the method shown. In cells and extracts the contact can be indirect. These calls come from enrichment with a bait or labelling near it, and not all partners need be listed.

Take “apoptosis-inducing factor mitochondrion-associated 1 (AIFM1) (from UniProt Q9JM53 102-612)”: the binding entry is on record as “binds”.
